Reference: publication PMC9355941
Results are given in words; binding and its absence hold for the method and conditions named. In cells and extracts the contact can be indirect. Some results given as binding are weak or reduced against the parent protein; the word gives no strength. For some of these results: Tags and fused reporters may be left off the sequences shown. Blank lines part the entries; values can stand above or below the substance they belong to.

The chains behind the UniProt entries cited, without tags or fusion partners.
UniProt O94972: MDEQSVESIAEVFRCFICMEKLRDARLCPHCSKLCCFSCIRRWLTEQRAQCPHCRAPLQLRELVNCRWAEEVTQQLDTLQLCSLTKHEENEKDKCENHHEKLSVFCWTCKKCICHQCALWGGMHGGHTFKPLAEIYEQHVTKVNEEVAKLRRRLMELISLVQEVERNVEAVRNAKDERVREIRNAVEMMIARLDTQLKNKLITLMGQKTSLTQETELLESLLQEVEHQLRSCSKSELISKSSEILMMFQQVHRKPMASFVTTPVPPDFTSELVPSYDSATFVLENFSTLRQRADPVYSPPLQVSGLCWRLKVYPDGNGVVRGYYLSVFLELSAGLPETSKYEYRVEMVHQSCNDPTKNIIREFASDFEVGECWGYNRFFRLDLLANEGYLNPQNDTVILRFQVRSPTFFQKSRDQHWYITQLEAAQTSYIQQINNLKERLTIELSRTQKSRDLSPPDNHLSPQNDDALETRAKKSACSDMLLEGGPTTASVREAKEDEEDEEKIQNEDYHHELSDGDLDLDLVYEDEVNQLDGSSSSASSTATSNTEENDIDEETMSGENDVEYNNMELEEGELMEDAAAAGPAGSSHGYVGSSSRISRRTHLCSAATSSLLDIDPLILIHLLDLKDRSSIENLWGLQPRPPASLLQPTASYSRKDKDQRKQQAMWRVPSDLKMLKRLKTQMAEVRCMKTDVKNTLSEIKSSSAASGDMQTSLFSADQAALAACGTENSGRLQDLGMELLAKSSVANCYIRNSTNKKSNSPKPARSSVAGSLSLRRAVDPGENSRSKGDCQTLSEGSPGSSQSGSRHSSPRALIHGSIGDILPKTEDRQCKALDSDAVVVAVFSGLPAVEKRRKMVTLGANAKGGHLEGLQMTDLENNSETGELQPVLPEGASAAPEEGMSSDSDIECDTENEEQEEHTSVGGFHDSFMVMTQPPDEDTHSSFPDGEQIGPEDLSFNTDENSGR

Columns and labels:
[1] = target: T1, Myc-PBK (pMyc-C2-PBK) (human) (UniProt Q96KB5); assay: co-IP; HEK293T co-transfected for 48 h with Myc- and EGFP-tagged constructs; immunoprecipitation with anti-Myc or anti-GFP antibody, protein A/G agarose, western blot
T1 sequence: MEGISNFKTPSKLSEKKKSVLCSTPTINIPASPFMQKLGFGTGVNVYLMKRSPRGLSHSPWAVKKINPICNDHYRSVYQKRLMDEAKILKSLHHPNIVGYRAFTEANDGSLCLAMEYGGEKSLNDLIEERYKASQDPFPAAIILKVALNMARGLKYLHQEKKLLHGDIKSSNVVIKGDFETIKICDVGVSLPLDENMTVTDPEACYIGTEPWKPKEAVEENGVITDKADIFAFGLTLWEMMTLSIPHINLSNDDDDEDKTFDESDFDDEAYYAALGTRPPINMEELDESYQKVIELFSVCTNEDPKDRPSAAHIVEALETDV

[2] = target: T2, EGFP-PBK (pEGFP-C2-PBK) (human) (UniProt Q96KB5); assay: as above
T2 sequence: T1 sequence

GST-PBK (human) = target: T3, GST-PBK (human) (UniProt Q96KB5); assay: pull-down; 25 µg GST fusion protein with 20 µL supernatant of UWB1.289 cells expressing PCMV-TRIM37 (flag-tag), on GST-tag Purification Resin for 2 h in GST pull-down protein binding buffer; only the target purified
T3 sequence: T1 sequence

[3] = target: T4, PDZ-binding kinase (PBK), endogenous (human (endogenous in UWB1.289 and SKOV3)) (UniProt Q96KB5); assay: co-IP; endogenous proteins in SKOV3 and UWB1.289 lysates; also after olaparib for 24 h with anti-TRIM37 antibody for the precipitation (binding increased by olaparib)
T4 sequence: T1 sequence

- binding [1]: binds
Substance: EGFP-TRIM37 (pEGFP-C2-TRIM37) (from UniProt O94972 1-964)

- binding [2]: binds
Substance: Myc-TRIM37 (pMyc-C2-TRIM37) (from UniProt O94972 1-964)

- binding (GST-PBK (human)): binds
Substance: TRIM37 (flag-tag) from PCMV-TRIM37 (from UniProt O94972 1-964)

- binding [3]: binds
Substance: tripartite motif containing 37 (TRIM37), endogenous (from UniProt O94972 1-964)
